The other results are listed elsewhere or left out.
Legend:
Assay in all cases: log2 fold change, soluble protein after heating vs DMSO (PISA); higher = thermal stabilisation; K562 cells, 10 uM, 30 min; active = over 0.2 and 3.5 SD of the protein, either way, in both replicates (recomputed)
[1] = compound: CC1=C(SC2=C1C(=N[C@H](C3=NN=C(N32)C)CC(=O)N)C4=CC=C(C=C4)Cl)C
Method in brief: (§1)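 Soluble protein was quantified by TMTpro 16plex LC-MS/MS after channel sums were equalised. It was obtained as the supernatant after 21,000xg for 90 min from pooled aliquots of K562 cells (2×10^6 cells/mL, 10 μM compound, 30 min) heated for 3 min across 48°C-58°C and extracted in PBS with 0.5% NP-40 at 4°C. Thermal stability values are relative to control samples and come from duplicates. They are given as log2 fold changes.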

Chains of the proteins cited; added tags and fusions are not shown. Lines headed by an entry give the natural chain unless they say otherwise; changes in a name come on top.
UniProt Q96NT5: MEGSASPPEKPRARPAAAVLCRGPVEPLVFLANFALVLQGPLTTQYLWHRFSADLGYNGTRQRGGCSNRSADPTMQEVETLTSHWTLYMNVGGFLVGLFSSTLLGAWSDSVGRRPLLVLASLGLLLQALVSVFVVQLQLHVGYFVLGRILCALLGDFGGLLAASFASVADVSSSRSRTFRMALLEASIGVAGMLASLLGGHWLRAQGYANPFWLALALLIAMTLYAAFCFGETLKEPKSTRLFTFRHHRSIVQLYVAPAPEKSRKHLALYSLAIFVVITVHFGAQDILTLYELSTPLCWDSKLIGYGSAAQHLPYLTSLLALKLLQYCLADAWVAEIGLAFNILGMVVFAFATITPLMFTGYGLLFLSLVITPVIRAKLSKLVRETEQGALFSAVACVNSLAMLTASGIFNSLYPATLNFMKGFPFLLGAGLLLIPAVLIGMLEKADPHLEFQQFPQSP
UniProt Q9NTN3, whole entry, looked up: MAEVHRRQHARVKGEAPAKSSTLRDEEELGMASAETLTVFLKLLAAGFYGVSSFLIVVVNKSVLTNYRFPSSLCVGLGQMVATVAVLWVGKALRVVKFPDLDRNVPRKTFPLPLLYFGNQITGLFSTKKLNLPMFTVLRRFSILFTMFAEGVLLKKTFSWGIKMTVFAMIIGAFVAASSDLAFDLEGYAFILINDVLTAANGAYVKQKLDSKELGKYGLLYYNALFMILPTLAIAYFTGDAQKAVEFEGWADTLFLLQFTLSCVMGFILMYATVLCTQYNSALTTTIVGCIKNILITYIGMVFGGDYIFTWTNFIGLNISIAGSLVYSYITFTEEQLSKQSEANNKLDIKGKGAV
UniProt Q695T7: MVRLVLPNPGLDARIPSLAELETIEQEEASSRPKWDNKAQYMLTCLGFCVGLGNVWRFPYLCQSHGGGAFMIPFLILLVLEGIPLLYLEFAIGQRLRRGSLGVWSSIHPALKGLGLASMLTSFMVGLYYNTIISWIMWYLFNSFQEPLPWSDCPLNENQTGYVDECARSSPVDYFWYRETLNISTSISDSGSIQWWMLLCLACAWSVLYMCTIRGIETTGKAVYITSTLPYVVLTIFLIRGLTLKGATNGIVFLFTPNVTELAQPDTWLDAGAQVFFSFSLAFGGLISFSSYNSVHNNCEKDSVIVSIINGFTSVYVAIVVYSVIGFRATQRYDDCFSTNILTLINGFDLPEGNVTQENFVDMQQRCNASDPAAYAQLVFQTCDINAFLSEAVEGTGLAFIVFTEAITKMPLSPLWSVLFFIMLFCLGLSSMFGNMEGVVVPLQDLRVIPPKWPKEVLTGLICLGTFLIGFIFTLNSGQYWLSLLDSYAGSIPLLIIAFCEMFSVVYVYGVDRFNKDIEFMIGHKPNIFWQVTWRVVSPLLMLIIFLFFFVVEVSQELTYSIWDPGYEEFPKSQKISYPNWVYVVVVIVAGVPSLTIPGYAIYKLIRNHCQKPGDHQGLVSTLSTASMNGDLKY
UniProt A1A5C7: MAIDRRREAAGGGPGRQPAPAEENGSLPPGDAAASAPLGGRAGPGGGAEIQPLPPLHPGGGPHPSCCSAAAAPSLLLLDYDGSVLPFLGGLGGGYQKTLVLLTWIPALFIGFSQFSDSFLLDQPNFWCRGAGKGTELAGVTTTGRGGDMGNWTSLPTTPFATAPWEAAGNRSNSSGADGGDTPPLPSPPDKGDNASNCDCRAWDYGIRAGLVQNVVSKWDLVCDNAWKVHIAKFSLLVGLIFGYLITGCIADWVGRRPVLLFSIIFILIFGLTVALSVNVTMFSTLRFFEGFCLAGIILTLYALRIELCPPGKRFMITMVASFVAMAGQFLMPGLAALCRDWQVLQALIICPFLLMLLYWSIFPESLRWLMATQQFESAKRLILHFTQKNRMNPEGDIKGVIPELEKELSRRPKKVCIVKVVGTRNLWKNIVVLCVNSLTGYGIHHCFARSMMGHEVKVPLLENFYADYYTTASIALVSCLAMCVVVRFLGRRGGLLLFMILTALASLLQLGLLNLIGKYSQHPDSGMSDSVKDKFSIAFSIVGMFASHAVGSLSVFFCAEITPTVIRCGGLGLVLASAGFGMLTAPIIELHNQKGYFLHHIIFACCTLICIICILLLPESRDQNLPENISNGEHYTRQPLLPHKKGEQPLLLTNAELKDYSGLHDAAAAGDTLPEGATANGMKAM
UniProt L0R6Q1: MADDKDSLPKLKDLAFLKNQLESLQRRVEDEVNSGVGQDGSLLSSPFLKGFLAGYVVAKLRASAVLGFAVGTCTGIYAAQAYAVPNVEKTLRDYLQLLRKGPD
UniProt P14672: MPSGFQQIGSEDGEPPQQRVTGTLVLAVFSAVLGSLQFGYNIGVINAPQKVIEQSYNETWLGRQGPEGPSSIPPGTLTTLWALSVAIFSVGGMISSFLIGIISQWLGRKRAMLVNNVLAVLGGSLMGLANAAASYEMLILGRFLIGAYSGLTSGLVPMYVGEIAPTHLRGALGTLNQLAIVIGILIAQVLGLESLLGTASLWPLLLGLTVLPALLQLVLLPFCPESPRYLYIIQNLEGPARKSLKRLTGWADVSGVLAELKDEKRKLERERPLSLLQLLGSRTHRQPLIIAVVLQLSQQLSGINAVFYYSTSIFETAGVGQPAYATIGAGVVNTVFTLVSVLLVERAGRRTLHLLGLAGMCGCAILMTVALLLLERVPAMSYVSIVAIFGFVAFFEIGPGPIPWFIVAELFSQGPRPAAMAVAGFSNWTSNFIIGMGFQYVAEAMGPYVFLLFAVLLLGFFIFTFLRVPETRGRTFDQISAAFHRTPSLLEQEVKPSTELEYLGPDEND
UniProt Q9H015: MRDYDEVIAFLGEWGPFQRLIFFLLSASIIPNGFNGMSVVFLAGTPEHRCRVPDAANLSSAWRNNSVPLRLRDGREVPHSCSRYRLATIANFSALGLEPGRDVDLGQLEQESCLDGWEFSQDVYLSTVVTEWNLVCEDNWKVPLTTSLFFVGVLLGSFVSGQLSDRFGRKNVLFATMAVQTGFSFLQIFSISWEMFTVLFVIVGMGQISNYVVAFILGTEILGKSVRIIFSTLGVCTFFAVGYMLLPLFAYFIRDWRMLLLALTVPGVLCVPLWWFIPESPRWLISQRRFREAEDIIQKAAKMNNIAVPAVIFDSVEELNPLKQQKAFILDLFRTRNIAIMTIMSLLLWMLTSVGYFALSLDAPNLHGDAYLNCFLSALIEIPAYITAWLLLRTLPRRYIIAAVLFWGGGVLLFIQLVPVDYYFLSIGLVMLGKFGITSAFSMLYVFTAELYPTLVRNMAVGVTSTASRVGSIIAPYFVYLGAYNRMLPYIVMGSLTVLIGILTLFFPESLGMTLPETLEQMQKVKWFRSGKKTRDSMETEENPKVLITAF
UniProt O76082: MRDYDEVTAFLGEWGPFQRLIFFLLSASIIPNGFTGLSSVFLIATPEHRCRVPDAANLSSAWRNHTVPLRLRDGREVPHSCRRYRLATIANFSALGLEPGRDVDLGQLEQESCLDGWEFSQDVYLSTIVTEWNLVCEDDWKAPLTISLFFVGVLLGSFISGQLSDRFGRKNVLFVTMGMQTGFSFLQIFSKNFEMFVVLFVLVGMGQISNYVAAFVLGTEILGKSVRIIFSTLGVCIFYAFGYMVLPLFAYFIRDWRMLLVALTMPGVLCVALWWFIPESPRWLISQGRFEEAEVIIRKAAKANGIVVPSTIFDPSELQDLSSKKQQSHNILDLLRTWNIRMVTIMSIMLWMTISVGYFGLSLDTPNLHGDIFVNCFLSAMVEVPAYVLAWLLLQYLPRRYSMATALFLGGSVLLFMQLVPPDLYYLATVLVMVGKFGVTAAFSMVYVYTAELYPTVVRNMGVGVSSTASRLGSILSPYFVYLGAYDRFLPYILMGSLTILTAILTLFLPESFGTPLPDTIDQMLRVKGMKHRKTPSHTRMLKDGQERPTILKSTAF
UniProt Q9BRY0: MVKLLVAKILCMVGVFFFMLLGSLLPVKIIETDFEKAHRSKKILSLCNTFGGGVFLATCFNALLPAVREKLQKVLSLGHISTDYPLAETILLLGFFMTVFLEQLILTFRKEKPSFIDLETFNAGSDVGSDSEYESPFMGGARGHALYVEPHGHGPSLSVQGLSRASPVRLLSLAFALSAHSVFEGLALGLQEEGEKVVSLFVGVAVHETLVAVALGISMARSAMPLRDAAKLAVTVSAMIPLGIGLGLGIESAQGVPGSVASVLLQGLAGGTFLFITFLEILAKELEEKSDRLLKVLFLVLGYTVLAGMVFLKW
UniProt Q9NY26: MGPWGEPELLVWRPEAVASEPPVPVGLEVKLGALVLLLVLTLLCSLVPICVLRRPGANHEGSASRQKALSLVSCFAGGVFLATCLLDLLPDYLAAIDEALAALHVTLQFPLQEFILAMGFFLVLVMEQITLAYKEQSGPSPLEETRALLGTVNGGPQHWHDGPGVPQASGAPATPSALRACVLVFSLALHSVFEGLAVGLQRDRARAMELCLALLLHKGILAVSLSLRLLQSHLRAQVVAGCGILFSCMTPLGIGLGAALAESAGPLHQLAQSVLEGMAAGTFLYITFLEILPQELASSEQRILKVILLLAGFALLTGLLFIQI
UniProt P50443: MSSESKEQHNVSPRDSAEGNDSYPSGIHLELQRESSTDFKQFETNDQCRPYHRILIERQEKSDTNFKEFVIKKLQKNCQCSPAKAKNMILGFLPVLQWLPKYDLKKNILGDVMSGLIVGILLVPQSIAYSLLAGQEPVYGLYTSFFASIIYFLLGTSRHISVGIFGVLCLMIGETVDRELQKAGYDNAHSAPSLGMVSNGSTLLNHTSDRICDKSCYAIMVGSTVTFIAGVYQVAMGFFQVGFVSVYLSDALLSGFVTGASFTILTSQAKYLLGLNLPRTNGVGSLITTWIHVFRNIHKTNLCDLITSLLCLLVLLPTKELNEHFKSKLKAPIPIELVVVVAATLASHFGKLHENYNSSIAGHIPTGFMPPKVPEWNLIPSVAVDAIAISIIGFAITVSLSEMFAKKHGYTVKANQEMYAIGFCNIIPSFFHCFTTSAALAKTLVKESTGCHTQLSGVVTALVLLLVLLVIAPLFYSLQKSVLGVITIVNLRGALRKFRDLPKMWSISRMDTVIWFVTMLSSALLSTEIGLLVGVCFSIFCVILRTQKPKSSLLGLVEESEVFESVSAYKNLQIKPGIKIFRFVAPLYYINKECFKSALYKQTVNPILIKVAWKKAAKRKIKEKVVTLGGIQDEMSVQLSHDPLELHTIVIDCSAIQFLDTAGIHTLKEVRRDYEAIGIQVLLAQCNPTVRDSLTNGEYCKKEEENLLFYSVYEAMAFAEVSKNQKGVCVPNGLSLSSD
UniProt Q5SVS4: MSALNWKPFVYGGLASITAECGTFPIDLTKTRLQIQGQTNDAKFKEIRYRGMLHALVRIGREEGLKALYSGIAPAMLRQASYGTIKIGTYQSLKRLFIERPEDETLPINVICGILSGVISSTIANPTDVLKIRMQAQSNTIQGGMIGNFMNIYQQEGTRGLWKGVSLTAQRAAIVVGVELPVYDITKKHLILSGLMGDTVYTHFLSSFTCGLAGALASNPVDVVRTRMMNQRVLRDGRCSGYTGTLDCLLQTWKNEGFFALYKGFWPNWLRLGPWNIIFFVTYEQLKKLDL
UniProt P0CK96: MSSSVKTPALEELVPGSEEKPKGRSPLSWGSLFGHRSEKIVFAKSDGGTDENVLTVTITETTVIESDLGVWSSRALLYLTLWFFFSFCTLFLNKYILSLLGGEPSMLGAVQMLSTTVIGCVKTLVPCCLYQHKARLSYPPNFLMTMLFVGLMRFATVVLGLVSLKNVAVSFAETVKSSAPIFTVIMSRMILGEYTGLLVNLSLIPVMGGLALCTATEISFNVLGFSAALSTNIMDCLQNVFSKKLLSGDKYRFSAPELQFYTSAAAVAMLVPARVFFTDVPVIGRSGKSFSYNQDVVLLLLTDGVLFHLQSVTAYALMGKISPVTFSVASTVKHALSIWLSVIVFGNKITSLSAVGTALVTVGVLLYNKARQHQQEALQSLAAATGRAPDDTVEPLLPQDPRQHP
UniProt O60779: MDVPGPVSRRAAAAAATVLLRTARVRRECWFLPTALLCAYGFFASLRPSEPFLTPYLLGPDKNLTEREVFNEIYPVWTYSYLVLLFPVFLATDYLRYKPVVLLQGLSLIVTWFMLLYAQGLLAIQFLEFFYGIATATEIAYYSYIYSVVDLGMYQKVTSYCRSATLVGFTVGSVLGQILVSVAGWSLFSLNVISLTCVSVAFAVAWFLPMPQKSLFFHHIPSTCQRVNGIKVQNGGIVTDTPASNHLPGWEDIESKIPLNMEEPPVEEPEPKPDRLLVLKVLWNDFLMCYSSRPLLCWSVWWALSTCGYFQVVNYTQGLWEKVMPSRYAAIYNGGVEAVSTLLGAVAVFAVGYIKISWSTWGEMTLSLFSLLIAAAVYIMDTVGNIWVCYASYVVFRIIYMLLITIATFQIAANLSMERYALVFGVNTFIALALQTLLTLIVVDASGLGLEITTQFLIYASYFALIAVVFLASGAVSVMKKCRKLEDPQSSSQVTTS

[2] = compound: CC1=C2C(=CC=C1)N=C(N(C2=O)C3=CC=CC=C3C)CN4C=NC5=C(N=CN=C54)N
Method in brief: as §1

[3] = compound: Cc1sc2c(c1C)C(c1ccc(Cl)cc1)=N[C@@H](CC(=O)OC(C)(C)C)c1nnc(C)n1-2
Method in brief: as §1

[4] = compound: c1ccc([C@@H]2C[C@H]2NC2CCNCC2)cc1
Method in brief: as §1

[5] = compound: C1=CC=C(C=C1)[C@H](COC2=CC3=C(C=C2)NC(=O)N3)NC(=O)C4=CC=CN(C4=O)CC5=CC(=C(C=C5)F)F
Method in brief: as §1

Measured: log2 fold change

SLC46A1 (UniProt Q96NT5)
inactive: [1] -0.09 | [2] 0.075 | [3] 0.024 | [4] 0.256

SLC35D1 (UniProt Q9NTN3)
inactive: [1] 0.092 | [2] 0.011 | [3] -0.096 | [4] 0.06

SLC6A19 (UniProt Q695T7)
inactive: [1] -0.166 | [4] 0.15

SLC22A23 (UniProt A1A5C7)
inactive: [1] 0.144 | [4] -0.139

SLC35A4 (UniProt L0R6Q1)
inactive: [5] 0 | [1] 0.084 | [2] -0.036 | [3] -0.146 | [4] 0.006

SLC2A4 (UniProt P14672)
inactive: [5] 0.218 | [1] 0 | [3] -0.079 | [4] 0.136

SLC22A4 (UniProt Q9H015)
inactive: [1] 0.04 | [2] 0.052 | [3] -0.006 | [4] -0.057

SLC25A29 (UniProt Q8N8R3)
inactive: [3] 0.038

SLC22A5 isoform 3 (UniProt O76082)
inactive: [5] 0.206 | [2] 0.019

SLC39A3 (UniProt Q9BRY0)
inactive: [5] 0.01 | [1] -0.02 | [2] -0.009 | [3] -0.011 | [4] -0.019

SLC39A1 (UniProt Q9NY26)
inactive: [1] -0.156 | [4] 0.053

SLC3A2 (UniProt F5H867)
inactive: [5] -0.097 | [3] 0.067

SLC10A3 (UniProt P09131)
inactive: [5] -0.013 | [3] -0.146

SLC6A8 (UniProt P48029)
inactive: [5] -0.055 | [1] 0.039 | [2] 0.025 | [3] -0.274 | [4] 0.102

SLC26A2 (UniProt P50443)
inactive: [2] -0.023

Five consecutive entries already listed, for reference:
SLC6A19 (UniProt Q695T7)
inactive: [1] -0.166 | [4] 0.15

SLC22A23 (UniProt A1A5C7)
inactive: [1] 0.144 | [4] -0.139

SLC35A4 (UniProt L0R6Q1)
inactive: [5] 0 | [1] 0.084 | [2] -0.036 | [3] -0.146 | [4] 0.006

SLC2A4 (UniProt P14672)
inactive: [5] 0.218 | [1] 0 | [3] -0.079 | [4] 0.136

SLC22A4 (UniProt Q9H015)
inactive: [1] 0.04 | [2] 0.052 | [3] -0.006 | [4] -0.057

Next results follow.

SLC39A9 (UniProt Q9NUM3)
inactive: [1] 0.323 | [2] 0.322 | [3] -0.121 | [4] -0.093

SLC25A30 (UniProt Q5SVS4)
inactive: [1] 0.076 | [2] 0.056 | [4] -0.021

SLC35E2B (UniProt P0CK96)
inactive: [5] -0.069 | [1] -0.162 | [2] -0.016 | [4] 0.183

SLC19A2 (UniProt O60779)
inactive: [1] 0.057 | [2] 0.134 | [3] -0.093 | [4] 0.042

From the supplement of paper PMC10849652
